# Primary screen of a compound library

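Whole-cell assay for inhibitors of Mycobacterium tuberculosis growth, labelled Cornell in the record; the read-out is not stated. The concentration is filed as 10 mM, unlikely as a test dose, so the dose is not known. Higher means stronger inhibition (inferred from two other growth screens of the library). Size under these conditions: about 53,000 compounds, about 900 of them at 50% or above in at least one test.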

Values are the deposited “Percent Effect”, in %.
The record does not define 0% and 100%; most values in the screen are far below 50% and negative numbers occur (in some assays of this library far below -100).
Compounds were drawn at random from those tested, without regard to their results.

* Cc1noc(C)c1CN1CCn2nc(CCC(=O)N3CCCC3)cc2C1 | -6.158%
* Cc1cc(Br)ccc1CNC(=O)C1(O)CCSCC1 | 4.407%
* Cc1cccc(C(=O)N(CCCO)S(=O)(=O)c2cccs2)c1 | 9.191%
* CCS(=O)(=O)N1CCc2ccc(NC(=O)NC(C)(C)C)cc21 | 19.06%
* Cc1cnccc1N1CCCN(C(=O)CCCn2ccnc2C)CC1 | 3.238%
* OC1(CNC2CCN(Cc3ccncc3)CC2)CCc2ccccc21 (centres undefined) | -6.705%
* Cc1cc(S(=O)(=O)N2C[C@H](C3CC3)[C@@H](N)C2)c(C)s1 | 25.06%
* O=C(Nc1cccc(CN2CCOC2=O)c1)N1CCCCCC1 | -30.8%
* O=C(Cc1cccs1)N1CCc2nnc(COc3cncnc3)n2CC1 | -7.381%
* Cc1nccc(CNC(=O)NCCC(=O)N2CCCc3ccccc32)n1 | -0.6089%
* CCc1nc(-c2cncnc2C2CCCNC2)no1.Cl (centres undefined) | 40.93%
* COC(=O)CCNC(=O)c1nc(NS(=O)(=O)c2ccccc2)sc1C | 29.74%
* O=C(CCN1CCCCO1)N1CCC(CO)(Cc2ccccc2)CC1 | 36.53%
* CC(=O)c1cnc(NCCc2csc(-c3cnccn3)n2)nc1C | -6.901%
* COC(C)(CNS(=O)(=O)c1cccnc1)c1ccccc1F (centres undefined) | 14.85%
* CCOc1ccc(NC2CCN(C)C2=O)cn1 (centres undefined) | -24.83%
* CN(C)CCOCc1nnc2n1CCN(Cc1ccsc1)C2.O=C(O)C(F)(F)F.O=C(O)C(F)(F)F | 8.095%
* Cc1ccc(CS(=O)(=O)Cc2nc(N)nc(N(C)C)n2)cc1 | 18.8%
* Cn1nccc1C(=O)N1CCC(n2cc(-c3ccsc3)nn2)CC1 | -9.033%
* COCCN1CCC(C(=O)N(C)Cc2cccc(Cl)c2)C1 (centres undefined) | -2.971%
* O=C(O)C(F)(F)F.[H][C@@]12CCN(CC3CC3)[C@@]1([H])CCN2C(=O)c1cccc(C#N)c1 | -18.99%
* COCC(=O)N1CCC2(C1)c1ccccc1S(=O)(=O)N2C (centres undefined) | -5.47%
* O=C(Cc1ccccc1)NC[C@H]1Cn2ccnc2CO1 | -6.994%
* O=C(O)C(F)(F)F.[H][C@@]12CCN(CC3CCCC3)C[C@]1(C(=O)N1CCOCC1)CCO2 | -4.082%
* N#Cc1cccc(CN2C[C@@H](F)[C@@H](OCc3nc4ccccc4[nH]3)C2)c1 | 2.784%
* CC(C)n1ccnc1CN1CCCN(C(=O)CN(C)C2CC2)CC1 | -5.071%
* Cn1nccc1-c1cccc(CC2CCN(S(C)(=O)=O)C2)n1 (centres undefined) | 50.09%
* Cc1cc(C)n(C2CCCN(C(=O)c3cn4cccnc4n3)C2)n1 (centres undefined) | 7.74%
* O=C(O)C(F)(F)F.[H][C@@]12CCCO[C@]1([H])[C@H](NC(=O)c1cscn1)CN2CC1CC1 | -3.213%
* Cc1cc(F)ccc1N1CCCC(NC(=O)CCCn2ccnc2)C1 (centres undefined) | -4.106%
* CN(C)c1cc2c(nn1)CCN(C(=O)c1cc3c(s1)CCOC3)C2 | 11.84%
* CCCN1CCN(C(=O)Cn2nc(C(F)(F)F)c(Br)c2C2CC2)CC1 | 9.476%
* FC(F)(F)c1ccnc(N2CCCN(Cc3ccccn3)CC2)n1 | -10.27%
* O=C(Cc1csc(-c2ccco2)n1)N1CCN(c2nccs2)CC1 | -9.768%
* CN(C)c1cc(NCc2cnc3n2CCN(CC2CC2)CC3)ncn1.O=C(O)C(F)(F)F | 33.34%
* COc1cc(C)nc(N2CCN(C(=O)COCC(F)(F)F)CC2)n1 | -18.11%
* COc1ccc(OCC(C)NS(C)(=O)=O)cc1 (centres undefined) | -42.01%
* CC1=Nc2c(c(O)nn2C2CCOCC2)C(c2cccnc2)S1 (centres undefined) | 8.5%
* COCc1cccc(NCc2cccnc2)c1 | -54.85%
* CN1CCC(N(Cc2ccccc2)C(=O)c2ccn3ccnc3c2)CC1 | -22.33%
* CCN(C(c1ccc(OC)cc1)c1cccnc1)S(C)(=O)=O (centres undefined) | -17.91%
* COc1ccc2c(c1)CN(Cc1nc3ccsc3c(=O)[nH]1)CC2 | 20.48%
* CC1CN(C)CCN1C(=O)c1ccc(-n2cnnc2)cc1 (centres undefined) | 11.81%
* Cc1nn(CC(=O)N2CCCN(c3cccnn3)CC2)c(C)c1Cl | 25.57%
* Cc1nn(C)c(N(C)C)c1CNCCCN(C)S(C)(=O)=O | -0.1681%
* Cc1cnn(CCNCC(O)COc2ccc(C#N)cc2)c1 (centres undefined) | 24.95%
* CC(Nc1cccc(CN2CCOC2=O)c1)C(=O)N1CCNC1=O (centres undefined) | -0.345%
* Cc1cnc(N2CCC3(CC2)CC3CNC(=O)N(C)C)nc1 (centres undefined) | 11.92%
* Cc1cc(NC(=O)CN2CCCC2c2noc(C3CC3)n2)n(C)n1 (centres undefined) | -35.39%
* COc1ccc(C(C)NCCC(N)=O)cc1F (centres undefined) | 0.9667%
* CC(C)NC(=O)C1CN(C(N)=O)Cc2ccnn2C1 (centres undefined) | 20.38%
* c1ccc(OCCN2CCCC(c3noc(C4CC4)n3)C2)cc1 (centres undefined) | 16.28%
* CC(=O)NCC(=O)N1CCc2nc(-c3ccccc3)nc(C)c2CC1 | 32.69%
* Cc1ccccc1CCC(=O)N1CCc2ncnc(NCCO)c2CC1 | -5.254%
* [H][C@@]12CCN(S(C)(=O)=O)C[C@@]1([H])O[C@H](C(=O)N1CCOCC1)C2 | 2.404%
* Cc1nc(NCC(O)CN2CCCCCC2)c2c(C)nn(C)c2n1 (centres undefined) | -45.62%
* COc1cccc(-c2noc(C3CCN(Cc4ccccc4C)C3)n2)c1.Cl (centres undefined) | -28.51%

For reference, 6 entries once more:

Compound	percent effect
Cc1nn(CC(=O)N2CCCN(c3cccnn3)CC2)c(C)c1Cl	25.57%
CC(C)NC(=O)C1CN(C(N)=O)Cc2ccnn2C1 (centres undefined)	20.38%
COc1ccc(OCC(C)NS(C)(=O)=O)cc1 (centres undefined)	-42.01%
O=C(O)C(F)(F)F.[H][C@@]12CCCO[C@]1([H])[C@H](NC(=O)c1cscn1)CN2CC1CC1	-3.213%
Cc1cc(Br)ccc1CNC(=O)C1(O)CCSCC1	4.407%
COc1ccc(C(C)NCCC(N)=O)cc1F (centres undefined)	0.9667%

Data taken from ChEMBL document CHEMBL3988442, “University of Dundee, Small-Polar-MMV Screening Library” (2021).